The list does not hold the whole screen: it is rich in T/C values a quarter to a half above the control, in often repeated tests (any T/C) and in doses without a T/C. Other doses and runs of a compound stand elsewhere. T/C: endpoint of the treated group in % of that of the vehicle group. Some entries give survivors of the animals treated and no T/C: the source files T/C as zero there, which appears to mark a toxic dose or a test without result, not a measured value. Some survivor counts are full or nearly so, which does not show that the dose was tolerated: survival well below the control is almost never listed, so the zero probably covers shortened survival too. Survivors were counted at the toxicity check, usually on the fifth day, unless a day is given; later deaths do not show. Schedule codes are those of the source, taken here to give the interval after Q, in days (D) or hours (H), and the number of doses after X. Some entries hold several experiments; the values are given in rising order. Some structures stand for samples that the source files as different forms (salt, stereo form or complex); doses refer to the form tested. For survival time, the PubChem record calls one and a half times the control and up active, and a quarter to a half above the control has no call in these data; cut-offs in other NCI protocols can differ. Some T/C values are followed by the survivors on the day toxicity was checked, most often the fifth; where none is given, no animal had died by that day. Counts like (3×) count equal records among those shown.

From PubChem BioAssay AID256 (DTP/NCI, 2004) come the findings set out here.

The subject of this assay is CD2F1 mice, L1210 leukemia ip, survival T/C. Put plainly: NCI In Vivo Anticancer Drug Screen. Data for tumor model L1210 Leukemia (intraperitoneal) in CD2F1 (CDF1) mice. To be noted: higher T/C = longer survival. The method, boiled down:
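Ratio T/C, where T is the treated-group value and C the vehicle-dosed control value, from mice implanted with a transplantable tumor.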

Where [1] appears, read: T/C endpoint: mean survival time, dose: 50.0 mg/kg/injection, schedule: Q01DX009 (ip), vehicle: saline with Tween-80.
[2] abbreviates: T/C endpoint: mean survival time, dose: 100.0 mg/kg/injection, schedule: Q01DX009 (ip), vehicle: saline with Tween-80.
Setting [3] is: T/C endpoint: mean survival time, dose: 100.0 mg/kg/injection, schedule: Q04DX002 (ip), vehicle: saline with Tween-80.
Where [4] appears, read: T/C endpoint: mean survival time, dose: 200.0 mg/kg/injection, schedule: Q04DX002 (ip), vehicle: saline with Tween-80.
[5] abbreviates: T/C endpoint: mean survival time, dose: 400.0 mg/kg/injection, schedule: Q04DX002 (ip), vehicle: saline with Tween-80.
The mark [6] stands for this setting: T/C endpoint: mean survival time, dose: 100.0 mg/kg/injection, schedule: Q01DX009 (ip), vehicle: Klucel (hydroxypropylcellulose) (HPC).
Setting [7] is: T/C endpoint: mean survival time, dose: 200.0 mg/kg/injection, schedule: Q01DX009 (ip), vehicle: Klucel (hydroxypropylcellulose) (HPC).
Setting [8] is: T/C endpoint: mean survival time, dose: 400.0 mg/kg/injection, schedule: Q01DX009 (ip), vehicle: Klucel (hydroxypropylcellulose) (HPC).
[9] abbreviates: T/C endpoint: mean survival time, dose: 400.0 mg/kg/injection, schedule: Q04DX003 (ip), vehicle: saline with Tween-80.
[10] abbreviates: T/C endpoint: mean survival time, dose: 200.0 mg/kg/injection, schedule: Q01DX001 (ip), vehicle: saline with Tween-80.
The mark [11] stands for this setting: T/C endpoint: mean survival time, dose: 200.0 mg/kg/injection, schedule: Q04DX003 (ip), vehicle: saline with Tween-80.

In the case of `CCCCCCCCCCCCCCCCCCN1CCCN(CCCCCCCCCCCCCCCCCC)CC1`, the T/C is 98, 103, 105, 122, 124 % of control under setting [1]; 102, 103, 104 [5 of 6 alive], 111 [5 of 6 alive], 113, 122 % of control [2 of 3 alive] under setting [2]; 90 and 95 % of control under setting [3]; 98, 103, 104 % of control (2×) under setting [4]. For the same compound, the survivor count was 3 of 6 under setting [1]; 3 of 3 and 6 of 6 under setting [3]; 0 of 3, 0 of 6, 1 of 6, 3 of 6, 2 of 3 (T/C endpoint: mean survival time, dose: 200.0 mg/kg/injection, schedule: Q01DX009 (ip), vehicle: saline with Tween-80); 3 of 3 (T/C endpoint: mean survival time, dose: 400.0 mg/kg/injection, schedule: Q04DX002 (ip), vehicle: other); 0 of 6 and 1 of 3 under setting [5].
Consider `Cl/C(=N\Nc1ccccc1)c1ccccc1`, for which the survivor count is on record as 0 of 6 under setting [6], 1 of 6 under setting [7] and 0 of 6 under setting [8].
As to `[Cl][Pt+2]([Cl])([Cl])[Cl].[NH-]CC1(C[NH-])CCCC1`, the survivor count reads like this: (T/C endpoint: median survival time, dose: 25.0 mg/kg/injection, schedule: Q04DX003 (ip), vehicle: saline) 5 of 6; (T/C endpoint: median survival time, dose: 50.0 mg/kg/injection, schedule: Q04DX003 (ip), vehicle: saline) 0 of 6 and 6 of 6; (T/C endpoint: median survival time, dose: 100.0 mg/kg/injection, schedule: Q04DX003 (ip), vehicle: saline) 0 of 6; (T/C endpoint: median survival time, dose: 200.0 mg/kg/injection, schedule: Q04DX003 (ip), vehicle: saline) 0 of 6.
Turning to `O=C(O)/C=C/SCCC(=O)O`, under setting [9], the survivor count is 0 of 6 and 2 of 6.
As to `Cc1ccc(C)c(C(=O)c2ccccc2C(N)=O)c1`, the survivor count by setting is: (T/C endpoint: mean survival time, dose: 100.0 mg/kg/injection, schedule: Q04DX003 (ip), vehicle: saline) 6 of 6; (T/C endpoint: mean survival time, dose: 200.0 mg/kg/injection, schedule: Q04DX003 (ip), vehicle: saline) 6 of 6; (T/C endpoint: mean survival time, dose: 400.0 mg/kg/injection, schedule: Q04DX003 (ip), vehicle: saline) 6 of 6.
Turning to `CCOC(=O)C(=C=[N-])[n+]1ccc(C)cc1`, the survivor count is, setting by setting: (T/C endpoint: mean survival time, dose: 100.0 mg/kg/injection, schedule: Q01DX001 (ip), vehicle: saline with Tween-80) 1 of 6; under setting [10], 0 of 6; (T/C endpoint: mean survival time, dose: 400.0 mg/kg/injection, schedule: Q01DX001 (ip), vehicle: saline with Tween-80) 0 of 6.
On to `Cc1cc(=O)n(Cc2ccccc2)n1-c1ccccc1`, for which the survivor count is reported as 3 of 6 under setting [11] and 2 of 6 under setting [9].
For `C#CCN(C)/N=N/c1nc[nH]c1C(N)=O`, the T/C is 129 % of control [5 of 6 alive] (T/C endpoint: mean survival time, dose: 25.0 mg/kg/injection, schedule: Q01DX009 (ip), vehicle: Klucel (hydroxypropylcellulose) (HPC)); 145 % of control (T/C endpoint: mean survival time, dose: 50.0 mg/kg/injection, schedule: Q01DX009 (ip), vehicle: Klucel (hydroxypropylcellulose) (HPC)); 137 % of control under setting [6].
Regarding `O=[N+]([O-])c1cc([N+](=O)[O-])c(Cl)s1`, the survivor count is listed as 5 of 6 (T/C endpoint: mean survival time, dose: 100.0 mg/kg/injection, schedule: Q04DX003 (ip), vehicle: saline with Tween-80); 0 of 6 under setting [11]; 0 of 6 under setting [9].
`Cn1c(=O)c2c(ncn2CN2CCN(Cn3cnc4c3c(=O)n(C)c(=O)n4C)CC2)n(C)c1=O`: the survivor count (T/C endpoint: mean survival time, dose: 400.0 mg/kg/injection, schedule: Q01DX001 (ip), vehicle: saline) was 3 of 6.
`Cc1ncc(C=O)c(C)c1O`: the survivor count reads like this: (T/C endpoint: mean survival time, dose: 150.0 mg/kg/injection, schedule: Q01DX001 (ip), vehicle: other) 3 of 6; (T/C endpoint: mean survival time, dose: 300.0 mg/kg/injection, schedule: Q01DX001 (ip), vehicle: other) 0 of 6.
With `CCCCCCCCCCCCCCCCCC[N+](CCO)(CCO)Cc1ccc(C[N+](CCO)(CCO)CCCCCCCCCCCCCCCCCC)cc1`, the survivor count is, setting by setting: under setting [3], 0 of 3; under setting [4], 1 of 3; under setting [5], 0 of 3.
`NC(=S)N/N=C/c1ccc([N+](=O)[O-])cc1`: the survivor count by setting is: (T/C endpoint: mean survival time, dose: 150.0 mg/kg/injection, schedule: Q01DX001 (ip), vehicle: saline with Tween-80) 0 of 6; (T/C endpoint: mean survival time, dose: 300.0 mg/kg/injection, schedule: Q01DX001 (ip), vehicle: saline with Tween-80) 0 of 6.
With `O=c1c2cc[nH]c2ncn1C1OC(CO)C(O)C1O` (configuration not stated), the survivor count runs as follows: (T/C endpoint: mean survival time, dose: 50.0 mg/kg/injection, schedule: Q01DX005 (ip), vehicle: saline) 0 of 4; (T/C endpoint: mean survival time, dose: 100.0 mg/kg/injection, schedule: Q01DX005 (ip), vehicle: saline) 0 of 4; (T/C endpoint: mean survival time, dose: 200.0 mg/kg/injection, schedule: Q01DX005 (ip), vehicle: saline) 0 of 4; (T/C endpoint: mean survival time, dose: 400.0 mg/kg/injection, schedule: Q01DX005 (ip), vehicle: saline) 0 of 4.
Regarding `O=C(Nc1ccc2ccccc2c1-c1c(NC(=O)c2ccccc2)ccc2ccccc12)c1ccccc1`, the survivor count under setting [10] is listed as 6 of 6.
As to `NC(=O)c1cc(N2CC2)c([N+](=O)[O-])cc1[N+](=O)[O-]`, the survivor count under setting [2] is listed as 2 of 6.
As for `CN(C)c1ccc2c(NCCCCCCNc3ccnc4cc(N(C)C)ccc34)ccnc2c1`, the T/C (T/C endpoint: median survival time, dose: 6.25 mg/kg/injection, schedule: Q01DX009 (ip), vehicle: distilled water + Tween-80 + alcohol) was 126 % of control; the T/C (T/C endpoint: median survival time, dose: 12.5 mg/kg/injection, schedule: Q01DX009 (ip), vehicle: distilled water + Tween-80 + alcohol) was 125 and 126 % of control; the T/C (T/C endpoint: median survival time, dose: 25.0 mg/kg/injection, schedule: Q01DX009 (ip), vehicle: distilled water + Tween-80 + alcohol) was 131 and 138 % of control. In addition, under “T/C endpoint: median survival time, dose: 50.0 mg/kg/injection, schedule: Q01DX009 (ip), vehicle: distilled water + Tween-80 + alcohol”, the survivor count was 1 of 10 and 5 of 6.
As to `CN(C)N=Nc1cc(Cl)cc(C(N)=O)c1Cl`, the T/C (T/C endpoint: mean survival time, dose: 266.0 mg/kg/injection, schedule: Q01DX009 (ip), vehicle: saline with Tween-80) is 135 % of control [4 of 6 alive].
For the compound `CCCNC1=C(C)C(=O)C2=C(C1=O)[C@H](COC(N)=O)[C@]1(OC)[C@@H]3N[C@@H]3CN21`, where the note is “T/C endpoint: median survival time, dose: 3.12 mg/kg/injection, schedule: Q01DX009 (ip), vehicle: saline”, the T/C was 128 % of control.
Turning to `CN1c2c(nc(N)[nH]c2=O)NCC1CCNc1ccc(C(=O)NC(CCC(=O)O)C(=O)O)cc1` (configuration not stated), the T/C under setting [6] was 132 % of control; the T/C under setting [7] is 132 % of control; the T/C (T/C endpoint: mean survival time, dose: 300.0 mg/kg/injection, schedule: Q01DX009 (ip), vehicle: sodium bicarbonate) is 133 % of control; the T/C under setting [8] is 139 % of control; the T/C (T/C endpoint: mean survival time, dose: 440.0 mg/kg/injection, schedule: Q01DX009 (ip), vehicle: sodium bicarbonate) was 132 % of control; the T/C (T/C endpoint: mean survival time, dose: 500.0 mg/kg/injection, schedule: Q01DX009 (ip), vehicle: sodium bicarbonate) is 140 % of control. The T/C is 138 % of control (T/C endpoint: mean survival time, dose: 660.0 mg/kg/injection, schedule: Q01DX009 (ip), vehicle: sodium bicarbonate); 149 % of control (T/C endpoint: mean survival time, dose: 750.0 mg/kg/injection, schedule: Q01DX009 (ip), vehicle: sodium bicarbonate); 126 % of control (T/C endpoint: mean survival time, dose: 800.0 mg/kg/injection, schedule: Q01DX009 (ip), vehicle: Klucel (hydroxypropylcellulose) (HPC)); 147 % of control (T/C endpoint: mean survival time, dose: 1000.0 mg/kg/injection, schedule: Q01DX009 (ip), vehicle: sodium bicarbonate, evaluated on day 30); 138 % of control (T/C endpoint: mean survival time, dose: 1000.0 mg/kg/injection, schedule: Q01DX009 (ip), vehicle: sodium bicarbonate, evaluated on day 45).
